Consider seven compounds from PubChem BioAssay AID328 (DTP/NCI, 2004).

The assay concerns BDF1 mice, P388 leukemia ip, median survival T/C. The experiment in a line: NCI In Vivo Anticancer Drug Screen. Data for tumor model P388 Leukemia (intraperitoneal) in B6D2F1 (BDF1) mice. The note with it: T/C endpoint: median survival time, higher T/C = longer survival. In a few lines: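 Antitumour effect was judged in vivo: survival in drug-treated mice, normalised to that of vehicle-dosed controls, gives the reported T/C.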

Where [1] appears, read: dose: 100.0 mg/kg/injection, schedule: Q04DX003 (ip), vehicle: saline sonified.
Setting [2] is: dose: 200.0 mg/kg/injection, schedule: Q04DX003 (ip), vehicle: saline sonified.
Setting [3] is: dose: 100.0 mg/kg/injection, schedule: Q01DX009 (ip), vehicle: saline.
Where [4] appears, read: dose: 16.5 mg/kg/injection, schedule: Q04DX003 (ip), vehicle: other.

The list is a part of this screen's results and no random one: it covers a few groups of compounds. Not every dose and run of a compound is shown. T/C is the treated group as % of the vehicle group. Some doses have a count of surviving animals in place of a T/C: the source holds a T/C of zero for them, seemingly a mark for toxic or unscored doses. Some doses without a T/C left all or most animals alive at the check, yet need not have been tolerated: the source hardly ever lists a survival T/C far under the control, and the zero likely stands for such cases as well. Survivors were counted at the toxicity check, usually on the fifth day, unless a day is given; later deaths do not show. Schedule codes are those of the source, taken here to give the interval after Q, in days (D) or hours (H), and the number of doses after X. For survival time, the PubChem record calls one and a half times the control and up active, and a quarter to a half above the control has no call in these data; cut-offs in other NCI protocols can differ. Signs of the kind (2×) count equal records among those shown. Some entries were tested several times; the values are given in rising order. Some T/C values are followed by the survivors on the day toxicity was checked, most often the fifth; without a count or a note in brackets, all were alive then.

For the compound `CCOC(=O)COc1cccc(N(CCCl)CCCl)c1`, the T/C is, setting by setting: (dose: 8.9 mg/kg/injection, schedule: Q01DX009 (ip), vehicle: other) 115 % of control; (dose: 13.3 mg/kg/injection, schedule: Q01DX009 (ip), vehicle: other) 124 % of control; (dose: 19.0 mg/kg/injection, schedule: Q04DX003 (ip), vehicle: Klucel (hydroxypropylcellulose) (HPC)) 100 % of control; (dose: 20.0 mg/kg/injection, schedule: Q01DX009 (ip), vehicle: other) 142 % of control; (dose: 21.0 mg/kg/injection, schedule: Q01DX009 (ip), vehicle: Klucel (hydroxypropylcellulose) (HPC)) 138 % of control; (dose: 29.0 mg/kg/injection, schedule: Q04DX003 (ip), vehicle: Klucel (hydroxypropylcellulose) (HPC)) 142 % of control. In addition, the T/C reads like this: (dose: 30.0 mg/kg/injection, schedule: Q01DX009 (ip), vehicle: Klucel (hydroxypropylcellulose) (HPC)) 155 % of control; (dose: 30.0 mg/kg/injection, schedule: Q01DX009 (ip), vehicle: other) 142 % of control; (dose: 37.5 mg/kg/injection, schedule: Q01DX009 (ip), vehicle: other) 133 % of control; (dose: 45.0 mg/kg/injection, schedule: Q04DX003 (ip), vehicle: Klucel (hydroxypropylcellulose) (HPC)) 155 % of control; (dose: 50.0 mg/kg/injection, schedule: Q04DX003 (ip), vehicle: saline sonified) 125 % of control; (dose: 65.0 mg/kg/injection, schedule: Q04DX003 (ip), vehicle: Klucel (hydroxypropylcellulose) (HPC)) 170 % of control. The T/C was 145 % of control (dose: 75.0 mg/kg/injection, schedule: Q01DX009 (ip), vehicle: Klucel (hydroxypropylcellulose) (HPC)); 145 % of control (dose: 75.0 mg/kg/injection, schedule: Q01DX009 (ip), vehicle: other); 133 % of control under setting [1]; 113 and 160 % of control (dose: 132.0 mg/kg/injection, schedule: Q04DX003 (ip), vehicle: Klucel (hydroxypropylcellulose) (HPC)); 140 % of control (dose: 150.0 mg/kg/injection, schedule: Q01DX009 (ip), vehicle: Klucel (hydroxypropylcellulose) (HPC)); 170 % of control (dose: 150.0 mg/kg/injection, schedule: Q01DX009 (ip), vehicle: other). For the same compound, the T/C runs as follows: (dose: 200.0 mg/kg/injection, schedule: Q04DX003 (ip), vehicle: Klucel (hydroxypropylcellulose) (HPC)) 122 and 155 % of control; under setting [2], 166 % of control; (dose: 300.0 mg/kg/injection, schedule: Q01DX009 (ip), vehicle: Klucel (hydroxypropylcellulose) (HPC)) 190 % of control; (dose: 300.0 mg/kg/injection, schedule: Q04DX003 (ip), vehicle: Klucel (hydroxypropylcellulose) (HPC)) 159 and 195 % of control.

Consider `NC(=O)c1cn[nH]c1/N=N/N(CCCl)CCCl`, for which the T/C reads like this: (dose: 50.0 mg/kg/injection, schedule: Q01DX009 (ip), vehicle: saline with Tween-80) 104 % of control; (dose: 100.0 mg/kg/injection, schedule: Q01DX009 (ip), vehicle: saline with Tween-80) 120 % of control. The survivor count (dose: 200.0 mg/kg/injection, schedule: Q01DX009 (ip), vehicle: saline with Tween-80) is 3 of 6.

In the case of `CN(N=O)C(=N)N[N+](=O)[O-]`, the T/C is, setting by setting: (dose: 8.0 mg/kg/injection, schedule: Q01DX010 (ip), vehicle: saline) 180 and 195 % of control; (dose: 16.0 mg/kg/injection, schedule: Q01DX010 (ip), vehicle: saline) 120 and 122 % of control; (dose: 32.0 mg/kg/injection, schedule: Q01DX010 (ip), vehicle: saline) 90 and 95 % of control. Further, for the setting “dose: 64.0 mg/kg/injection, schedule: Q01DX010 (ip), vehicle: saline”, the survivor count was 6 of 6.

Take `N=C(N[N+](=O)[O-])N(CCN1CCN=C1N[N+](=O)[O-])N=O`: the T/C under setting [3] is 113 % of control [5 of 6 alive]; the T/C under setting [1] was 100 % of control; the T/C (dose: 200.0 mg/kg/injection, schedule: Q01DX009 (ip), vehicle: saline) is 113 % of control; the T/C under setting [2] was 100 % of control; the T/C (dose: 400.0 mg/kg/injection, schedule: Q01DX009 (ip), vehicle: saline) was 113 % of control; the T/C (dose: 400.0 mg/kg/injection, schedule: Q04DX003 (ip), vehicle: saline sonified) was 100 % of control.

For the compound `BrCc1cccc(CBr)c1`, the T/C reads like this: (dose: 1.8 mg/kg/injection, schedule: Q01DX009 (ip), vehicle: other) 90 % of control; (dose: 1.8 mg/kg/injection, schedule: Q01DX009 (ip), vehicle: saline with Tween-80) 112 % of control; (dose: 2.6 mg/kg/injection, schedule: Q01DX009 (ip), vehicle: other) 120 % of control; (dose: 2.6 mg/kg/injection, schedule: Q01DX009 (ip), vehicle: saline with Tween-80) 108 % of control; (dose: 4.0 mg/kg/injection, schedule: Q01DX009 (ip), vehicle: other) 120 % of control; (dose: 4.0 mg/kg/injection, schedule: Q01DX009 (ip), vehicle: saline with Tween-80) 116 % of control. In addition, the T/C is 155 % of control [5 of 6 alive] (dose: 6.0 mg/kg/injection, schedule: Q01DX009 (ip), vehicle: other); 120 % of control (dose: 6.0 mg/kg/injection, schedule: Q01DX009 (ip), vehicle: saline with Tween-80); 130 % of control (dose: 6.25 mg/kg/injection, schedule: Q01DX009 (ip), vehicle: other); 100 % of control (dose: 6.25 mg/kg/injection, schedule: Q04DX003 (ip), vehicle: saline with Tween-80); 100 % of control (dose: 7.33 mg/kg/injection, schedule: Q04DX003 (ip), vehicle: other); 100 % of control (dose: 11.0 mg/kg/injection, schedule: Q04DX003 (ip), vehicle: other). Moreover, the T/C is 118 % of control (dose: 12.5 mg/kg/injection, schedule: Q04DX003 (ip), vehicle: saline with Tween-80); 140 % of control under setting [4]; 100 % of control (2×) (dose: 25.0 mg/kg/injection, schedule: Q04DX003 (ip), vehicle: other); 127 % of control (dose: 25.0 mg/kg/injection, schedule: Q04DX003 (ip), vehicle: saline with Tween-80). For the same compound, the survivor count runs as follows: (dose: 12.5 mg/kg/injection, schedule: Q01DX009 (ip), vehicle: other) 5 of 6; under setting [4], 6 of 6; (dose: 25.0 mg/kg/injection, schedule: Q01DX009 (ip), vehicle: other) 0 of 6; (dose: 37.5 mg/kg/injection, schedule: Q04DX003 (ip), vehicle: other) 3 of 6.

Turning to `N/C(=N\[N+](=O)[O-])N(CCCl)N=O`, the T/C was 107 and 130 % of control (dose: 26.0 mg/kg/injection, schedule: Q01DX009 (ip), vehicle: saline); 107 and 135 % of control (dose: 40.0 mg/kg/injection, schedule: Q01DX009 (ip), vehicle: saline); 121 and 135 % of control (dose: 60.0 mg/kg/injection, schedule: Q01DX009 (ip), vehicle: saline); 160 % of control (dose: 90.0 mg/kg/injection, schedule: Q01DX009 (ip), vehicle: saline); 160 % of control (dose: 135.0 mg/kg/injection, schedule: Q01DX009 (ip), vehicle: saline); 135 % of control (dose: 200.0 mg/kg/injection, schedule: Q01DX009 (ip), vehicle: Klucel (hydroxypropylcellulose) (HPC)). Further, the T/C (dose: 305.0 mg/kg/injection, schedule: Q01DX009 (ip), vehicle: Klucel (hydroxypropylcellulose) (HPC)) was 145 % of control.

Turning to `O=C(OCCNCCCl)c1ccccc1`, the T/C was 100 % of control under setting [3]; 104 % of control (dose: 100.0 mg/kg/injection, schedule: Q04DX003 (ip), vehicle: saline); 109 % of control (dose: 200.0 mg/kg/injection, schedule: Q04DX003 (ip), vehicle: saline).
